Taken from: PubChem BioAssay AID1159584 (Peter MacCallum Cancer Centre, 2016)
In all, the deposit lists about 18,000 reagents; below is a random part of them. The record does not give: the amount of reagent, the time to read-out.

Assay: 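Genes that CDH1-null MCF10A cells selectively depend on to survive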 (primary screen)
Cells: human MCF10A breast epithelial cells, parental and CDH1-null
Reagent: siRNA against human genes
Measurement: 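Cell viability by CellTiter-Glo ATP luminescence, each line scaled to the mean of mock wells across plates, then CDH1-null over parental ratio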
Reading the numbers: CDH1-null / parental viability ratio: higher = CDH1-null cells survive relatively better than parental; CDH1-null viability vs mock: higher = more viable CDH1-null cells; parental viability vs mock: higher = more viable parental cells

target gene | CDH1-null / parental viability ratio | CDH1-null viability vs mock (fraction of mock) | parental viability vs mock (fraction of mock)
MAP3K4 | 1.01 | 0.7 | 0.69
TOMM20L | 1.54 | 0.83 | 0.54
TUBG2 | 1.37 | 0.82 | 0.6
TUBA1A | 0.79 | 0.34 | 0.43
TLCD1 | 0.69 | 0.58 | 0.84
NYAP1 | 0.83 | 0.38 | 0.46
SSBP4 | 0.83 | 0.44 | 0.53
ARL1 | 0.98 | 0.86 | 0.88
KIR2DL4 | 0.84 | 0.36 | 0.43
TRIM32 | 0.81 | 0.76 | 0.94
LOC400576 (retired record) | 1.02 | 1.06 | 1.04
MTMR12 | 1.26 | 0.77 | 0.61
LMAN1 | 0.88 | 0.6 | 0.68
TMEM80 | 0.85 | 0.67 | 0.79
GUK1 | 0.66 | 0.58 | 0.88
TMEM53 | 1.31 | 0.97 | 0.74
ELP4 | 1.09 | 1.02 | 0.94
KATNAL1 | 0.8 | 0.79 | 0.99
RASGRP2 | 0.72 | 0.54 | 0.75
PSMD3 | 1.28 | 0.37 | 0.29
POMZP3 | 0.8 | 0.7 | 0.87
LSR | 1 | 0.68 | 0.68
METTL25B | 0.87 | 0.76 | 0.87
TYK2 | 1.23 | 0.9 | 0.73
FIG4 | 1.16 | 0.88 | 0.76
SPA17 | 1.17 | 0.47 | 0.4
PTPRU | 1.23 | 0.96 | 0.78
ZNF544 | 1.24 | 0.82 | 0.66
RETSAT | 1.06 | 0.52 | 0.49
CDK5RAP1 | 1 | 0.54 | 0.54
DGKD | 0.79 | 0.68 | 0.86
PPARGC1A | 0.84 | 0.64 | 0.76
CDC14B | 1.69 | 0.81 | 0.48
PHF12 | 0.94 | 0.96 | 1.02
HIC2 | 1.15 | 0.94 | 0.82
TG | 1.08 | 1.09 | 1.01
CRH | 0.88 | 0.86 | 0.98
UCP1 | 0.93 | 1.11 | 1.2
SPTLC1 | 0.9 | 0.88 | 0.98
ZIM2 | 1.05 | 0.58 | 0.55
CCDC62 | 0.84 | 0.98 | 1.16
PRR5 | 1.14 | 0.84 | 0.74
ZC3H7A | 1.33 | 0.68 | 0.51
APOA1 | 1.05 | 0.88 | 0.84
TAC3 | 1 | 0.9 | 0.9

Laid out differently: results already given.
{"target gene": "TYK2", "CDH1-null / parental viability ratio": 1.23, "CDH1-null viability vs mock (fraction of mock)": 0.9, "parental viability vs mock (fraction of mock)": 0.73}
{"target gene": "FIG4", "CDH1-null / parental viability ratio": 1.16, "CDH1-null viability vs mock (fraction of mock)": 0.88, "parental viability vs mock (fraction of mock)": 0.76}
{"target gene": "SPA17", "CDH1-null / parental viability ratio": 1.17, "CDH1-null viability vs mock (fraction of mock)": 0.47, "parental viability vs mock (fraction of mock)": 0.4}
{"target gene": "PTPRU", "CDH1-null / parental viability ratio": 1.23, "CDH1-null viability vs mock (fraction of mock)": 0.96, "parental viability vs mock (fraction of mock)": 0.78}
{"target gene": "ZNF544", "CDH1-null / parental viability ratio": 1.24, "CDH1-null viability vs mock (fraction of mock)": 0.82, "parental viability vs mock (fraction of mock)": 0.66}
{"target gene": "RETSAT", "CDH1-null / parental viability ratio": 1.06, "CDH1-null viability vs mock (fraction of mock)": 0.52, "parental viability vs mock (fraction of mock)": 0.49}
{"target gene": "CDK5RAP1", "CDH1-null / parental viability ratio": 1, "CDH1-null viability vs mock (fraction of mock)": 0.54, "parental viability vs mock (fraction of mock)": 0.54}
{"target gene": "DGKD", "CDH1-null / parental viability ratio": 0.79, "CDH1-null viability vs mock (fraction of mock)": 0.68, "parental viability vs mock (fraction of mock)": 0.86}

The list goes on:
target gene | CDH1-null / parental viability ratio | CDH1-null viability vs mock (fraction of mock) | parental viability vs mock (fraction of mock)
KRT37 | 0.92 | 0.79 | 0.86
CD300A | 0.91 | 0.8 | 0.88
HPDL | 0.82 | 0.66 | 0.8
GCM2 | 1.23 | 1.08 | 0.88
AMMECR1L | 1.28 | 0.83 | 0.65
CUL1 | 1.22 | 1.06 | 0.87
DTNA | 1.59 | 0.7 | 0.44
LPIN1 | 1.09 | 0.88 | 0.81
STXBP6 | 0.85 | 0.62 | 0.73
ZFAND2B | 1.11 | 0.78 | 0.7
LYRM9 | 0.84 | 0.72 | 0.86
SIRAL1 | 0.99 | 1 | 1.01
GRM3 | 1.44 | 1.01 | 0.7
HOXD1 | 1.08 | 0.82 | 0.76
GRIA1 | 1.37 | 1.19 | 0.87
ACTN3 | 1.18 | 0.87 | 0.74
BCL2L2 | 0.92 | 0.57 | 0.62
IFRD1 | 0.85 | 0.92 | 1.08
SCRG1 | 0.71 | 0.5 | 0.7
RPAIN | 0.92 | 0.9 | 0.98
MS4A10 | 1.06 | 0.76 | 0.72
BRPF3 | 0.98 | 0.94 | 0.96
HSH2D | 0.94 | 0.58 | 0.62
